PubChem BioAssay AID330 (DTP/NCI, 2004)
The list does not hold the whole screen: it gathers tests that were run many times, whatever their T/C, doses with no T/C, and many T/C values between a quarter and a half above the control. Further doses and runs are listed elsewhere. T/C gives the treated animals as a percentage of the vehicle group. Some entries give survivors of the animals treated and no T/C: the source holds a T/C of zero for them, seemingly a mark for toxic or unscored doses. Some doses without a T/C left all or most animals alive at the check, yet need not have been tolerated: the source hardly ever lists a survival T/C far under the control, and the zero likely stands for such cases as well. Counts of survivors are from the toxicity check (mostly the fifth day) where no day follows; animals may have died later. Schedules are NCI's codes, read here as Q, the interval in days (D) or hours (H), X, the number of doses. Some doses were run more than once; the values are given in rising order. For survival time, this PubChem deposit counts one and a half times the control or more as active, and values a quarter to a half above the control carry no call in these data; other NCI protocols may use other cut-offs.

Test system: P388 leukemia ip, CD2F1 mice, survival T/C
Assay: NCI In Vivo Anticancer Drug Screen. Data for tumor model P388 Leukemia (intraperitoneal) in CD2F1 (CDF1) mice
Conditions: T/C endpoint: median survival time, higher T/C = longer survival
[1] = dose: 400.0 mg/kg/injection, schedule: Q04DX002 (ip), vehicle: saline
[2] = dose: 100.0 mg/kg/injection, schedule: Q01DX009 (ip), vehicle: saline
[3] = dose: 25.0 mg/kg/injection, schedule: Q01DX009 (ip), vehicle: saline with Tween-80
[4] = dose: 50.0 mg/kg/injection, schedule: Q01DX009 (ip), vehicle: saline with Tween-80
[5] = dose: 200.0 mg/kg/injection, schedule: Q01DX009 (ip), vehicle: saline with Tween-80
[6] = dose: 60.0 mg/kg/injection, schedule: Q01DX005 (ip), vehicle: Klucel (hydroxypropylcellulose) (HPC)
[7] = dose: 120.0 mg/kg/injection, schedule: Q01DX005 (ip), vehicle: Klucel (hydroxypropylcellulose) (HPC)
[8] = dose: 240.0 mg/kg/injection, schedule: Q01DX005 (ip), vehicle: Klucel (hydroxypropylcellulose) (HPC)
[9] = dose: 100.0 mg/kg/injection, schedule: Q01DX009 (ip), vehicle: saline with Tween-80
[10] = dose: 400.0 mg/kg/injection, schedule: Q04DX002 (ip), vehicle: saline with Tween-80
[11] = dose: 100.0 mg/kg/injection, schedule: Q04DX002 (ip), vehicle: saline with Tween-80
[12] = dose: 200.0 mg/kg/injection, schedule: Q01DX005 (ip), vehicle: saline with Tween-80
[13] = dose: 25.0 mg/kg/injection, schedule: Q01DX005 (ip), vehicle: saline with Tween-80
[14] = dose: 100.0 mg/kg/injection, schedule: Q01DX005 (ip), vehicle: saline with Tween-80

CC1CCC[P+](c2ccccc2)(c2ccccc2)CC1 (stereo unspecified)
survivor count (dose: 100.0 mg/kg/injection, schedule: Q04DX002 (ip), vehicle: saline): 0 of 6 | survivor count (dose: 200.0 mg/kg/injection, schedule: Q04DX002 (ip), vehicle: saline): 0 of 6 | survivor count [1]: 0 of 6

NCCNCC[OH2+].NCCNCC[OH2+].[Ni+2].[O-][Cl+3]([O-])([O-])[O-]
survivor count [2]: 2 of 6 | survivor count (dose: 200.0 mg/kg/injection, schedule: Q01DX009 (ip), vehicle: saline): 0 of 6

S=C(Oc1ccccc1)Oc1ccccc1
survivor count [3]: 6 of 6 | survivor count [4]: 6 of 6 | survivor count [5]: 4 of 6

N#CC(OC(=O)c1cccc(C(=O)OC(C#N)(C(F)(F)F)C(F)(F)F)c1Sc1ccccc1)(C(F)(F)F)C(F)(F)F
survivor count (dose: 200.0 mg/kg/injection, schedule: Q04DX002 (ip), vehicle: Klucel (hydroxypropylcellulose) (HPC)): 1 of 6

O/N=C1/C(=N/O)N(c2ccccc2)CN1c1ccccc1
survivor count [6]: 6 of 6 | survivor count [7]: 6 of 6 | survivor count [8]: 6 of 6

CCCCCCCCCCCCCCCCON
survivor count (dose: 200.0 mg/kg/injection, schedule: Q01DX009 (ip), vehicle: Klucel (hydroxypropylcellulose) (HPC)): 1 of 6

O=[N+]([O-])c1cccc2c[n+](Cc3ccccc3)ccc12
survivor count [9]: 2 of 6

CC(=O)Nc1nccs1.CC(=O)Nc1nccs1.[Cl][Pt][Cl]
survivor count [10]: 1 of 6

O=C(Nc1cccc(Cl)c1)OCCCc1ccncc1
survivor count [5]: 6 of 6

N#CC(=O)Nc1cc(Cl)cc(Cl)c1
survivor count (dose: 30.0 mg/kg/injection, schedule: Q01DX005 (ip), vehicle: saline with Tween-80): 2 of 6 | survivor count (dose: 60.0 mg/kg/injection, schedule: Q01DX005 (ip), vehicle: saline with Tween-80): 0 of 6 | survivor count (dose: 120.0 mg/kg/injection, schedule: Q01DX005 (ip), vehicle: saline with Tween-80): 0 of 6 | survivor count (dose: 240.0 mg/kg/injection, schedule: Q01DX005 (ip), vehicle: saline with Tween-80): 0 of 6

c1ccc2c(NCC3CCNCC3)c3ccccc3nc2c1
survivor count [11]: 1 of 6

O=C(Nc1cccc2c1C(=O)c1cccc(Nc3cccc4c3C(=O)c3cccc(NC(=O)c5ccccc5)c3C4=O)c1C2=O)c1ccccc1
survivor count [12]: 5 of 5

CC(c1ccccc1)n1ccnc1CC#N (stereo unspecified)
survivor count (dose: 120.0 mg/kg/injection, schedule: Q01DX005 (ip), vehicle: saline): 0 of 6 | survivor count (dose: 240.0 mg/kg/injection, schedule: Q01DX005 (ip), vehicle: saline): 0 of 6

CCOC(=O)c1cc2c(cc1O)C1CC=C(C)[C@@H]3CCO[C@](OC)(C2)[C@]13C(=O)OC (stereo partly specified)
survivor count (dose: 100.0 mg/kg/injection, schedule: Q01DX001 (ip), vehicle: saline with Tween-80): 6 of 6 | survivor count (dose: 200.0 mg/kg/injection, schedule: Q01DX001 (ip), vehicle: saline with Tween-80): 6 of 6 | survivor count (dose: 400.0 mg/kg/injection, schedule: Q01DX001 (ip), vehicle: saline with Tween-80): 6 of 6

O=C(Nc1ccc(Cc2ccc(NC(=O)C34CC5CC(CC(C5)C3)C4)cc2)cc1)C12CC3CC(CC(C3)C1)C2
survivor count [12]: 5 of 5

O=P1(N(CCCl)CCCl)Nc2cccc3cccc(c23)N1
T/C (dose: 50.0 mg/kg/injection, schedule: Q01DX009 (ip), vehicle: Klucel (hydroxypropylcellulose) (HPC)): 128 % of control

CN(C)C1C(O)C2Oc3c(cc(O)c4c3C(=O)c3cc5c(c(O)c3C4=O)C(N)CC(C)(O)C5)C(C)(O2)C1O (stereo unspecified)
T/C (dose: 10.0 mg/kg/injection, schedule: Q01DX009 (ip), vehicle: other): 134 % of control | T/C (dose: 20.0 mg/kg/injection, schedule: Q01DX009 (ip), vehicle: other): 139 % of control | T/C (dose: 40.0 mg/kg/injection, schedule: Q01DX009 (ip), vehicle: other): 148 % of control | survivor count (dose: 80.0 mg/kg/injection, schedule: Q01DX009 (ip), vehicle: other): 0 of 6

COc1cc(NC(C)=O)c(OC)c2c(Cl)ccnc12
survivor count (dose: 400.0 mg/kg/injection, schedule: Q01DX001 (ip), vehicle: acid diluted with saline): 0 of 6

N=C(N)SCC[n+]1cccc2cccc(O)c21
survivor count [1]: 1 of 6

COc1ccc(S(=O)(=O)N/N=C/C(=O)OCOC(=O)C(C)(C)C)cc1
T/C (dose: 10.0 mg/kg/injection, schedule: Q01DX005 (ip), vehicle: other): 130 % of control | T/C (dose: 20.0 mg/kg/injection, schedule: Q01DX005 (ip), vehicle: other): 125 % of control | T/C (dose: 20.0 mg/kg/injection, schedule: Q01DX005 (ip), vehicle: saline + Tween-80 + alcohol): 133 % of control | T/C (dose: 40.0 mg/kg/injection, schedule: Q01DX005 (ip), vehicle: other): 133 % of control | survivor count (dose: 40.0 mg/kg/injection, schedule: Q01DX005 (ip), vehicle: saline + Tween-80 + alcohol): 6 of 6 | survivor count (dose: 50.0 mg/kg/injection, schedule: Q01DX005 (ip), vehicle: saline + Tween-80 + alcohol): 3 of 6 | survivor count (dose: 100.0 mg/kg/injection, schedule: Q01DX005 (ip), vehicle: saline + Tween-80 + alcohol): 0 of 6 | survivor count (dose: 200.0 mg/kg/injection, schedule: Q01DX005 (ip), vehicle: saline + Tween-80 + alcohol): 0 of 6

CONC(=O)N/N=C\c1c(CO)cnc(C)c1O
survivor count [6]: 0 of 6 | survivor count [7]: 0 of 6 | survivor count [8]: 0 of 6

CN(/N=C/c1ccc(Cl)cc1)P(=O)(N1CC1)N1CC1
T/C [13]: 134 % of control | T/C [14]: 125 % of control | survivor count [12]: 4 of 6

O=[N+]([O-])c1c(Nc2ccccc2)n(-c2ccccc2)c2ccc(O)cc12
survivor count [13]: 6 of 6 | survivor count (dose: 50.0 mg/kg/injection, schedule: Q01DX005 (ip), vehicle: saline with Tween-80): 6 of 6 | survivor count [14]: 6 of 6 | survivor count [12]: 6 of 6

Fc1ccc(Nc2c3ccccc3nc3c2cnn3-c2ccccc2)cc1
survivor count [7]: 6 of 6

CC(=O)Nc1cccc(OCc2cccc(N3C(N)=NC(N)=NC3(C)C)c2)c1
T/C (dose: 25.0 mg/kg/injection, schedule: Q01DX009 (ip), vehicle: distilled water + Tween-80): 127 % of control | T/C (dose: 50.0 mg/kg/injection, schedule: Q01DX009 (ip), vehicle: distilled water + Tween-80): 136 % of control | survivor count (dose: 50.0 mg/kg/injection, schedule: Q01DX009 (ip), vehicle: saline): 5 of 5 | survivor count (dose: 100.0 mg/kg/injection, schedule: Q01DX009 (ip), vehicle: distilled water + Tween-80): 0 of 5 | survivor count [2]: 0 of 5

CCOC(=O)/C=C(/C)SC1=CC(=O)c2ccccc2C1=O
survivor count (dose: 3.13 mg/kg/injection, schedule: Q01DX009 (ip), vehicle: saline): 6 of 6 | T/C (dose: 6.25 mg/kg/injection, schedule: Q01DX009 (ip), vehicle: saline with Tween-80): 128 % of control | survivor count [3]: 2 of 6 | survivor count [4]: 2 of 6 | survivor count [9]: 0 of 6 | survivor count [5]: 0 of 6

O=C1C=C(Cl)C(=O)C2=C1CCCC2
survivor count (dose: 12.5 mg/kg/injection, schedule: Q04DX002 (ip), vehicle: saline with Tween-80): 5 of 6 | survivor count (dose: 25.0 mg/kg/injection, schedule: Q04DX002 (ip), vehicle: saline with Tween-80): 3 of 6 and 4 of 6 | survivor count (dose: 50.0 mg/kg/injection, schedule: Q04DX002 (ip), vehicle: saline with Tween-80): 0 of 6 | survivor count [11]: 0 of 6 | survivor count (dose: 200.0 mg/kg/injection, schedule: Q04DX002 (ip), vehicle: saline with Tween-80): 0 of 6 | survivor count [10]: 0 of 6
